Assay [1] concerns the target GST-PDZ1-2, GST fusion protein containing PDZ1-PDZ2 of hDlg (human). The assay can be described thus: pull-down; 40 μg GST-PDZ1-2 or 90 μg GST-α14 bound to 20 μl GSH-agarose beads, 8 μg peptide, 2 h at 4°C; washed with PBS-0.01% Triton X-100 and 50 mM Tris pH 7.6; eluted with 30% acetic acid; bound peptide detected by SELDI/MALDI-TOF on H4 ProteinChip arrays; both purified.

In assay [2] the target is GST-α14, GST fusion protein containing the 14th repeat of α-spectrin. The assay is described as above.

No constants are given. Whether binding was seen depends on the method and setting.

This passage reports binding results from publication PMC3268111.

B1: 1CT, peptide of the last 16 residues of human MEK1 (peptide)
peptide: TIGLNQPSTPTHAAGV
For B1, the binding result in assay [1] is recorded as “no binding (tested: 8 μg of peptides)”.

B2: 2CT, peptide of the last 16 residues of human MEK2 (peptide)
peptide: KTLRLNQPGTPTRTAV
For B2, in assay [2], the binding result is “no binding (tested: 8 μg of peptides)”.

B3: 2RD, randomized version of the 2CT peptide sequence (peptide)
peptide: RKTLGNRPPLVTTAQT
Turning to B3, in assay [1], the binding entry is given as “no binding (tested: 8 μg of peptides)”.
